Earlier results as cited in patent publication US8192719B2, “Methods and kits to diagnose growth hormone deficiency by oral administration of EP 1572 or EP 1573 compounds” (Aeterna Zentaris GmbH, priority 2006, dated 2012).

Details: route as printed with the test, cited from earlier work; for Specificity: proportion of subjects correctly assessed as not having GHD; for Sensitivity: proportion of subjects correctly diagnosed with GHD

| SMILES | Specificity [%] | Sensitivity [%] |
| --- | --- | --- |
| N=C(N)NCCC[C@H](N)C(=O)O [ARG (i.v.), arginine] | 91 | 87 |
| N[C@@H](Cc1ccc(O)c(O)c1)C(=O)O [L-Dopa (p.o.), levodopa] | 62 | 100 |
